From the supplement of paper PMC6078165
Values are relative to the signal before dosing, not to a vehicle control; the signal also falls without drug.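 Labels refer to human fibroblasts, largely primary: uterine (C12385, HUF), lung (H6013), bone (Hs27A), adrenal (HADF), skin (WS1), plus mammary HMF and breast cancer-associated Hs343T. Cancer lines are basal-like or mesenchymal-like triple-negative breast cancer. The paper counts as hits responses shifting over 3x the replicate standard deviation. The tissue of the other fibroblasts is not given here.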

System: MDAMB436
Assay: relative JC-1 red fluorescence (viability) vs pre-drug, coculture with fibroblast (fraction); higher = more viable cancer cells
Description: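 JC-1 labelled TNBC cells cocultured 1:1 (1,500 cells each) with CellTrace Violet stained primary or stromal fibroblasts in 384-well plates in FluoroBrite medium, treated with one of 42 anticancer drugs at 0.1, 1, 10 or 100 uM. JC-1 red fluorescence (mitochondrial integrity in cancer cells only) was read by plate reader every 8 h for 72 h. Values are normalised to each well's pre-drug value. The stock of one drug was tenfold lower, so its dose labels may be too high.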

CC(=O)c1c(C)c2cnc(Nc3ccc(N4CCNCC4)cn3)nc2n(C2CCCC2)c1=O [Palbociclib]
relative JC-1 red fluorescence
Settings	8 h	16 h	24 h	32 h	40 h	48 h	56 h	64 h	72 h
0.1 µM, coculture fibroblast: C12385	0.804	0.68	0.65	0.572	0.529	0.504	0.483	0.467	0.462
0.1 µM, coculture fibroblast: H6013	0.864	0.747	0.744	0.741	0.732	0.763	0.725	0.702	0.662
0.1 µM, coculture fibroblast: H6019	0.748	0.6671	0.634	0.557	0.521	0.501	0.466	0.438	0.413
0.1 µM, coculture fibroblast: H6076	0.788	0.706	0.684	0.642	0.621	0.594	0.606	0.603	0.591
0.1 µM, coculture fibroblast: H6231	0.81	0.738	0.69	0.613	0.583	0.547	0.5215	0.4945	0.466
0.1 µM, coculture fibroblast: HADF	0.813	0.685	0.652	0.599	0.5674	0.569	0.506	0.492	0.452
0.1 µM, coculture fibroblast: HCFa	0.773	0.6468	0.6068	0.5689	0.522	0.537	0.468	0.456	0.405
0.1 µM, coculture fibroblast: HCPF	0.774	0.68	0.658	0.599	0.575	0.5363	0.511	0.487	0.465
0.1 µM, coculture fibroblast: HHSteC	0.8239	0.74	0.7198	0.6875	0.674	0.6859	0.6182	0.5991	0.541
0.1 µM, coculture fibroblast: HMF	0.765	0.667	0.626	0.572	0.5501	0.5173	0.519	0.4926	0.4869
0.1 µM, coculture fibroblast: HPFa	0.8797	0.79	0.7576	0.7154	0.697	0.71	0.63	0.606	0.5288
0.1 µM, coculture fibroblast: HUF	0.866	0.779	0.746	0.679	0.638	0.599	0.583	0.561	0.549
0.1 µM, coculture fibroblast: Hs5	0.774	0.6683	0.664	0.614	0.601	0.565	0.579	0.55	0.539
0.1 µM, coculture fibroblast: Hs27A	0.789	0.716	0.676	0.663	0.625	0.691	0.586	0.564	0.495
0.1 µM, coculture fibroblast: Hs343T	0.729	0.6528	0.614	0.569	0.549	0.512	0.5	0.484	0.48
0.1 µM, coculture fibroblast: WS1	0.787	0.668	0.63	0.537	0.488	0.46	0.425	0.395	0.381
1 µM, coculture fibroblast: C12385	0.8402	0.709	0.719	0.646	0.595	0.566	0.533	0.512	0.498
1 µM, coculture fibroblast: H6013	0.899	0.85	0.878	0.881	0.794	0.761	0.754	0.807	0.813
1 µM, coculture fibroblast: H6019	0.783	0.716	0.71	0.643	0.604	0.58	0.536	0.495	0.467
1 µM, coculture fibroblast: H6076	0.823	0.70206	0.715	0.6766	0.654	0.633	0.643	0.643	0.632
1 µM, coculture fibroblast: H6231	0.819	0.726	0.717	0.6452	0.6089	0.5677	0.5541	0.54	0.506
1 µM, coculture fibroblast: HADF	0.877	0.794	0.799	0.782	0.764	0.79	0.726	0.715	0.67
1 µM, coculture fibroblast: HCFa	0.845	0.762	0.738	0.7043	0.67	0.67648	0.603	0.575	0.511
1 µM, coculture fibroblast: HCPF	0.822	0.731	0.7517	0.696	0.661	0.621	0.593	0.575	0.545
1 µM, coculture fibroblast: HHSteC	0.894	0.845	0.817	0.784	0.779	0.784	0.717	0.686	0.621
1 µM, coculture fibroblast: HMF	0.852	0.735	0.747	0.6949	0.664	0.6291	0.619	0.594	0.574
1 µM, coculture fibroblast: HPFa	0.939	0.904	0.901	0.868	0.86	0.862	0.78	0.746	0.666
1 µM, coculture fibroblast: HUF	0.901	0.778	0.759	0.684	0.625	0.601	0.57	0.539	0.519
1 µM, coculture fibroblast: Hs5	0.826	0.744	0.7441	0.677	0.657	0.608	0.601	0.57	0.541
1 µM, coculture fibroblast: Hs27A	0.8669	0.803	0.778	0.747	0.716	0.762	0.656	0.633	0.56
1 µM, coculture fibroblast: Hs343T	0.84	0.722	0.708	0.665	0.627	0.587	0.568	0.546	0.528
1 µM, coculture fibroblast: WS1	0.832	0.7277	0.72209	0.65481	0.6148	0.599	0.5751	0.544	0.536
10 µM, coculture fibroblast: C12385	0.883	0.836	0.843	0.794	0.766	0.741	0.719	0.688	0.673
10 µM, coculture fibroblast: H6013	0.8937	0.863	0.886	0.8392	0.781	0.879	0.809	0.827	0.837
10 µM, coculture fibroblast: H6019	0.8397	0.829	0.841	0.811	0.807	0.804	0.763	0.74	0.704
10 µM, coculture fibroblast: H6076	0.838	0.688	0.679	0.639	0.596	0.571	0.563	0.545	0.537
10 µM, coculture fibroblast: H6231	0.819	0.7697	0.67667	0.627	0.593	0.554	0.525	0.497	0.478
10 µM, coculture fibroblast: HADF	0.886	0.862	0.856	0.834	0.831	0.835	0.792	0.767	0.711
10 µM, coculture fibroblast: HCFa	0.919	0.9	0.817	0.855	0.829	0.852	0.887	0.868	0.817
10 µM, coculture fibroblast: HCPF	0.8268	0.775	0.705	0.659	0.617	0.578	0.539	0.508	0.486
10 µM, coculture fibroblast: HHSteC	0.908	0.8662	0.852	0.837	0.837	0.837	0.791	0.773	0.734
10 µM, coculture fibroblast: HMF	0.85	0.733	0.6332	0.5963	0.56	0.519	0.494	0.473	0.455
10 µM, coculture fibroblast: HPFa	0.9374	0.9102	0.907	0.901	0.899	0.895	0.864	0.86	0.81
10 µM, coculture fibroblast: HUF	0.9153	0.8641	0.869	0.822	0.782	0.748	0.717	0.706	0.687
10 µM, coculture fibroblast: Hs5	0.835	0.705	0.662	0.591	0.555	0.498	0.482	0.438	0.408
10 µM, coculture fibroblast: Hs27A	0.888	0.88	0.88	0.838	0.793	0.741	0.754	0.755	0.701
10 µM, coculture fibroblast: Hs343T	0.792	0.661	0.629	0.583	0.5477	0.5038	0.481	0.454	0.432
10 µM, coculture fibroblast: WS1	0.8558	0.8544	0.9085	0.9087	0.924	0.929	0.9086	0.872	0.833
100 µM, coculture fibroblast: C12385	0.658	0.542	0.476	0.387	0.336	0.306	0.284	0.261	0.237
100 µM, coculture fibroblast: H6013	0.588	0.3906	0.355	0.323	0.2997	0.2928	0.2547	0.2313	0.1909
100 µM, coculture fibroblast: H6019	0.777	0.535	0.484	0.407	0.376	0.357	0.34	0.323	0.302
100 µM, coculture fibroblast: H6076	0.9884	0.838	0.712	0.602	0.505	0.435	0.389	0.363	0.339
100 µM, coculture fibroblast: H6231	0.871	0.761	0.656	0.5653	0.485	0.397	0.362	0.32	0.301
100 µM, coculture fibroblast: HADF	0.654	0.475	0.44	0.399	0.368	0.369	0.316	0.295	0.248
100 µM, coculture fibroblast: HCFa	0.788	0.487	0.417	0.357	0.328	0.329	0.281	0.263	0.214
100 µM, coculture fibroblast: HCPF	0.876	0.911	0.821	0.702	0.628	0.541	0.472	0.418	0.361
100 µM, coculture fibroblast: HHSteC	0.816	0.614	0.546	0.479	0.453	0.445	0.394	0.362	0.312
100 µM, coculture fibroblast: HMF	0.892	0.877	0.758	0.642	0.533	0.449	0.371	0.313	0.268
100 µM, coculture fibroblast: HPFa	0.891	0.76	0.611	0.535	0.493	0.486	0.423	0.405	0.355
100 µM, coculture fibroblast: HUF	0.8442	0.613	0.521	0.431	0.377	0.348	0.321	0.292	0.28
100 µM, coculture fibroblast: Hs5	0.987	0.908	0.791	0.663	0.553	0.456	0.419	0.358	0.311
100 µM, coculture fibroblast: Hs27A	0.575	0.409	0.361	0.328	0.303	0.321	0.259	0.242	0.186
100 µM, coculture fibroblast: Hs343T	0.992	0.9419	0.832	0.723	0.598	0.509	0.447	0.395	0.361
100 µM, coculture fibroblast: WS1	0.714	0.549	0.506	0.428	0.383	0.357	0.34	0.315	0.294
